At least one peptide structure holds a part that was inferred or is arguable (an end, a ring closure or a residue). Numbered stars: 1 amine (or outer) side, 2 acyl side, 3 side chain; on linkers, the order of the positions; unused ones are H or OH. Bridge positions count the residues as written; N and C are the ends. Square brackets hold non-standard residues; d marks the D form. Peptide text beside a SMILES is read from it. * marks the point of attachment. hPhe(3,5-F2-4-CF3) = N[C@@H](CCc1cc(F)c(C(F)(F)F)c(F)c1)C(=O)O; hPhe(3-Cl-4-CF3) = N[C@@H](CCc1ccc(C(F)(F)F)c(Cl)c1)C(=O)O; NMePhe(4-CF3) = CN[C@@H](Cc1ccc(C(F)(F)F)cc1)C(=O)O; NMePhe(4-Me) = CN[C@@H](Cc1ccc(C)cc1)C(=O)O; NMedβ3hAla = C[C@H](CC(=O)[*:2])N(C)[*:1]; Pro(4,4-F2) = O=C(O)[C@@H]1CC(F)(F)CN1; NMeGly(cBu) = CN[C@H](C(=O)O)C1CCC1; NMeCha = CN[C@@H](CC1CCCCC1)C(=O)O; Hyp = O=C(O)[C@@H]1C[C@@H](O)CN1; NMeChg = CN[C@H](C(=O)O)C1CCCCC1; NMeI = CC[C@H](C)[C@H](NC)C(=O)O; NMeD = CN[C@@H](CC(=O)O)C(=O)O; NMeL = CN[C@@H](CC(C)C)C(=O)O; NMeA = CN[C@@H](C)C(=O)O; Pyrrolidide = C1CCN(*)C1; Ac5c = NC1(C(=O)O)CCCC1; Aze = O=C(O)[C@@H]1CCN1; Sar = CNCC(=O)O
Test: Glass transition temperature by differential scanning calorimetry (mDSC)
Assay type: physicochemical
Conditions: glass transition temperature of the substance to be dispersed

Row | SMILES | Tgc [°C]
1 | CC[C@H](C)[C@@H]1NC(=O)[C@H](C2CCC2)N(C)C(=O)C[C@@H](C(=O)N2CCCC2)N(C)C(=O)[C@H](C2CCCCC2)N(C)C(=O)C2(CCCC2)NC(=O)[C@@H]2CC(F)(F)CN2C(=O)[C@H](CCc2cc(F)c(C(F)(F)F)c(F)c2)NC(=O)CN(C)C(=O)[C@H](CC2CCCCC2)N(C)C(=O)CN(C)C(=O)CN(C)C1=O [Compound V] ([NMeGly(cBu)]I[Sar][Sar][NMeCha][Sar][hPhe(3,5-F2-4-CF3)][Pro(4,4-F2)][Ac5c][NMeChg][NMeD]-Pyrrolidide; lactam N-11) | 161
2 | CC[C@H](C)[C@@H]1NC(=O)[C@H](CC(C)C)N(C)C(=O)C[C@@H](C(=O)N(C)C)N(C)C(=O)[C@H]([C@@H](C)CC)N(C)C(=O)C2(CCCC2)NC(=O)[C@@H]2CCCN2C(=O)[C@H](CCc2ccc(C(F)(F)F)c(Cl)c2)NC(=O)CN(C)C(=O)[C@H](Cc2ccc(C)cc2)N(C)C(=O)[C@@H]2CCN2C(=O)[C@H](C)N(C)C1=O [Compound IV] ([NMeL]I[NMeA][Aze][NMePhe(4-Me)][Sar][hPhe(3-Cl-4-CF3)]P[Ac5c][NMeI][NMeD]-NMe2; lactam N-11) | 156
3 | CC[C@H](C)[C@@H]1NC(=O)[C@H](CC(C)C)N(C)C(=O)C[C@@H](C(=O)N2CCCC2)N(C)C(=O)[C@H]([C@@H](C)CC)N(C)C(=O)C2(CCCC2)NC(=O)[C@@H]2CCCN2C(=O)[C@H](CCc2ccc(C(F)(F)F)c(Cl)c2)NC(=O)CN(C)C(=O)[C@H](Cc2ccc(C)cc2)N(C)C(=O)[C@@H]2CCN2C(=O)[C@H](C)N(C)C1=O [Compound III] ([NMeL]I[NMeA][Aze][NMePhe(4-Me)][Sar][hPhe(3-Cl-4-CF3)]P[Ac5c][NMeI][NMeD]-Pyrrolidide; lactam N-11) | 157
4 | CCO[C@@H]1C[C@H]2C(=O)NC3(CCCC3)C(=O)N(C)[C@@H]([C@@H](C)CC)C(=O)N(C)[C@H](C)CC(=O)N(C)[C@@H](CC(C)C)C(=O)N[C@@H]([C@@H](C)CC)C(=O)N(C)[C@@H](C)C(=O)N3CC[C@H]3C(=O)N(C)[C@@H](Cc3ccc(C(F)(F)F)cc3)C(=O)N(C)CC(=O)N[C@@H](CCc3ccc(C(F)(F)F)c(Cl)c3)C(=O)N2C1 [Compound II] (cyclo([Ac5c][NMeI][NMedβ3hAla][NMeL]I[NMeA][Aze][NMePhe(4-CF3)][Sar][hPhe(3-Cl-4-CF3)][Hyp](Et))) | 140

Source: EP4603546A1, “SOLID DISPERSION CONTAINING SUBSTANCE TO BE DISPERSED, PHARMACEUTICAL COMPOSITION CONTAINING SAME, AND PRODUCTION METHODS THEREFOR” (CHUGAI SEIYAKU KABUSHIKI KAISHA, priority 2022, dated 2024)
